Reference: article PMC2742894, “Crystal Structure of the N-Acetylmannosamine Kinase Domain of GNE” (PLoS ONE, 2009)
No constants are given. Whether binding was seen depends on the method and setting. Some binding calls cover weakened binding; strength is not graded here.

Columns and labels:
[1] = target: N-acetylmannosamine kinase domain of UDP-GlcNAc 2-epimerase/N-acetylmannosamine kinase (GNE), residues 406-720 (human) (UniProt Q9Y223); test: SEC; populations of oligomeric states at different protein concentrations; data not shown; both purified
[2] = target: N-acetylmannosamine kinase domain of UDP-GlcNAc 2-epimerase/N-acetylmannosamine kinase (GNE), residues 406-720 (human) (UniProt Q9Y223); test: crystal structure; ligand-free form, space group P3(1)21, three molecules in the asymmetric unit; interface analysis with the PISA server; crystals grown with 5 mM ADP and 1:100 chymotrypsin; both purified

binding [1]: binds
binding [2]: binds
B1: N-acetylmannosamine kinase domain of UDP-GlcNAc 2-epimerase/N-acetylmannosamine kinase (GNE), residues 406-720 (domain or fragment, human, UniProt Q9Y223 406-720, looked up)
chain: TLSALAVDLGGTNLRVAIVSMKGEIVKKYTQFNPKTYEERINLILQMCVEAAAEAVKLNCRILGVGISTGGRVNPREGIVLHSTKLIQEWNSVDLRTPLSDTLHLPVWVDNDGNCAALAERKFGQGKGLENFVTLITGTGIGGGIIHQHELIHGSSFCAAELGHLVVSLDGPDCSCGSHGCIEAYASGMALQREAKKLHDEDLLLVEGMSVPKDEAVGALHLIQAAKLGNAKAQSILRTAGTALGLGVVNILHTMNPSLVILSGVLASHYIHIVKDVIRQQALSSVQDVDVVVSDLVDPALLGAASMVLDYTTRR
notes: UDP-GlcNAc 2-epimerase/N-acetylmannosamine kinase (GNE), human, kinase domain, residues 406-720; cDNA codon optimized for E. coli and synthesized; Cloned into pET28-MHL (gi:134105571); For crystallization 1:100 chymotrypsin (w/w) and 5 mM ADP were added to the protein stock, so the crystallized chain may be trimmed; residues 475-498 are not seen in the electron density; A …
